The results are deposited in PubChem (AID1159506; NCATS, 2015).

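Genome-wide siRNA knockdown in TC32 Ewing sarcoma cells, comparing luciferase light from an NR0B1-promoter reporter with a CMV-promoter reporter 48 hours after transfection.
Each siRNA was applied at 20 nM.
A z-score of the log NR0B1-over-CMV signal, less the median of siRNAs with the same seed; more negative means a stronger specific loss of the NR0B1 reporter.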

This is part of the screen; most of the strongest results are not listed here.
Sequences are the guide (antisense) strand, without overhang.

Sequence,target gene,seed-corrected z-score
AUUCCGUCAAUGGUCAUUG,ELAVL2,-0.1472
UUCUUGUUCACUUUGCGCU,CDX1,0.08112
UUUGGAUACCUUCAGCUUG,PRX,0.6356
AUAGUACCAAUCUACGGCC,LOC643923,1.508
AGAGCUUCUAAGAAGACUG,SERTAD3,-0.4839
AACACCUUUAGGAACUUUC,FYTTD1,0.8718
AUAGAAUCUGGAGUCAUCC,PIGA,0.0556
AAAAGGACUGCUUCUCUCC,C5orf45,-0.04552
UAAUUUCCAUGAAUCACGC,TRMT61B,2.761
UUUUCUUUAAGUGAGUGUG,NRGN,0.2599
UCGUAUGCAAUGAUAUUCC,PTPRM,-0.03452
UCCCUCAUCAUUAUGUCGC,PLEKHA1,0.4709
AAUAGAUCAGCUACAGUGC,CYP2C8,-0.09547
UAGAGGUCUCUGGAUAUAG,CA10,0.5806
AAUGGUAUGGGUCAUAUAG,GLB1L,0.174
UUCAGGUCCCGCUUGUCCU,MGAT3,-0.6502
UCUGCUACUCAAGUGAAGG,KLHL8,0.2726
UGUCAUUAAAGCUCGUCUC,SH3BP4,-0.4209
UAGAGAACUAGGCAAGCCG,TOP3A,0.4823
AACGUGUCCGGAUCAAACG,CLEC2L,-0.3384
UGCUUAUUCCUCUUGAUCA,RPL28,0.3073
AAUAGAAAUCCGUUGUUUC,LOC391359,0.6137
UCCUGGUUUAUGAUGGAUG,MAPT,-1.479
UCUCGAUGUACAGCUGUGC,DENND6B,0.1238
UCAGGGUCGAAGGUACCGU,MRPL41,0.2056
AUUGGGCUCACAACAGUCG,SSC4D,-0.2759
AUCUUGAGCUGCGUGAUCC,TBX1,0.3436
UUUGAGGUCAUCGUCAUGG,WBP1L,-0.06309
UACAUAAUCUGGGCAUUGG,CELSR2,-0.9038
AGCUGCACAAUAUCCAAGC,NMS,0.09527
AGCAGGACAACCAAAAGCU,LINC01348,1.909
UUCGGCAUGUGAGCAAAGC,SYDE2,-0.1088
AAGGUUUCCAUUGUAGUCC,ANKRD42,0.5009
AAUGAGGGAACCUAGAGGC,CDC42EP5,0.08449
UUCCGAAUUGAUCUUAUCG,MTMR10,0.1377
AAAGUGACGACUUCCCACU,ZNF137P,-1.103
UUGCUAUGCAAUUCGGAUG,KIAA1549,0.6893
UUUGAUUCCCUAGUUUUCC,LHFPL5,0.6469
UGAUCUUAAUGGAUAAGUC,PDK3,-0.5565
UGAGUUGUUUCUGCAAGGG,EYS,-1.176
UUCGGGUACACUGACUAAG,PCDHGB5,0.8485
AAUAGGACCACAAACCUGG,MAN2A2,0.4235
UCUACUUGUAGAUAGCUGG,TCTEX1D1,-1.677
UUCCUAUACAGGUUGGUCC,PPP1R16B,-1.662
AAAUGAACAAUGCAGGAGC,OR4P4,0.2279
AAUGGGAUGACAAAAGGUC,RUNX1T1,-0.2874
UGGGAAUAAAUAGUGAACC,DPCD,-0.7036
UUCGGUAAAACUGAAGCUC,REXO2,-0.05247
AAAGUUGUUCAGCACCUGC,OR2B11,0.549
UACGUUUCUCCCAAGAGUG,OSBPL2,0.5168
UCCACUUUUCGAAAACUCC,XKRY,-0.1415
AAAUUGUUUAAGGUCUUUC,CXCL9,-0.2971
UCCUUUAGAGGAUCUAUUG,F2RL1,0.1833
UGUACUCAAAAUACCGGGC,HYLS1,-0.4319
UGGGCUUCCAGACUGGUCU,CD320,1.717
UAUCCUUCCAUGUAGCUUC,C9orf131,-0.5821
UUACUUCAUCUCGCAGUGC,KLHL10,1.383
ACUCGAAUAAUAUAUUCCG,PXK,-0.2829
UCUCCAGGUAGUUAAACUC,SEMA6B,-0.8528
UGACCUAUAGGCAAAGUCC,ZNF445,-0.3684

Some entries from above, unchanged:

Sequence	target gene	seed-corrected z-score
UGGGAAUAAAUAGUGAACC	DPCD	-0.7036
AGCUGCACAAUAUCCAAGC	NMS	0.09527
UACGUUUCUCCCAAGAGUG	OSBPL2	0.5168
UUGCUAUGCAAUUCGGAUG	KIAA1549	0.6893
AACGUGUCCGGAUCAAACG	CLEC2L	-0.3384
UUUGAGGUCAUCGUCAUGG	WBP1L	-0.06309